Assay results: patent US20250339465A1
Results are given in words; binding and its absence hold for the method and conditions named. Some entries that bind do so weakly or less than the wild type.

Protein sequences, listed by entry. Tags and fused reporters are not part of them. Residues count along the entry.
UniProt Q01973, residues 30-406: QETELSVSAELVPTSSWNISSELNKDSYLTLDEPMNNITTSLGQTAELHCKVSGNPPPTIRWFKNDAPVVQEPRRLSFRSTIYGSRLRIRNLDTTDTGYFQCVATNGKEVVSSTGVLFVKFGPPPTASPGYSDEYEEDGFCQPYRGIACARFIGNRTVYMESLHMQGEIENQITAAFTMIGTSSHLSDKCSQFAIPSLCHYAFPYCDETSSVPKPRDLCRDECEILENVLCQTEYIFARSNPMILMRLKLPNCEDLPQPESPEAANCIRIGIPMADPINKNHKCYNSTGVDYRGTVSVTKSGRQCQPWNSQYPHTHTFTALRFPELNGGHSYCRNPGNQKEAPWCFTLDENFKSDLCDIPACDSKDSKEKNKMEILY

Target: extracellular ROR1 protein (UniProt Q01973)
Test: ELISA

binding: binds
B1: mouse monoclonal anti-ROR1 antibody, hybridoma clone 2H6 (antibody, V domains shown)
VH: VKLVESGGGLVKPGGSLKLSCAASGFTFSTYAMSWVRQTPEKRLEWVASISSGGNTYYPDSVKGRFTISRDNARHILYLQMSSLRSEDTAMYYCARDSYYFGNSVYYAMDYWGQGTSVTVSS
VL: DIKMTQSPSSMYASLGERVTITCKASQDINSYFSWFQQKPGKSPKTLIYRANRLVDGVPSRFSGSGSGQDYSLTISSLEYEDMGIYYCLQYDEFPYTFGGGTKLEIKR
